The list shows a part of the results. Further columns of the screen follow, without active or inactive calls. Compounds called inactive in the main read-out are mostly missing here. The note in brackets gives the kind of curve behind each potency; many fits are weak.
Experiment: qHTS Assay for Lipid Storage Modulators in Drosophila S3 Cells;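 for cell number change: cells counted by Cell Tracker Red CMTPX staining in the red channel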
Settings: BODIPY lipid droplet fluorescence, 18-24 h; for cell number change: measured here: cell count max response, cells fed with added oleic acid
In short: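 Drosophila S3 cells got compounds at several concentrations plus oleic acid (400 uM solution). Laser-scanning cytometry with 488 nm excitation read lipid droplets at 500-530 nm and cells at 575-640 nm. Percent activity was relative to 20 uM Triacsin C.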

[1] = measured here: lipid fluorescence (Fed channel) AC50, cells fed with added oleic acid
[2] = measured here: cell number channel AC50, cells fed with added oleic acid

| SMILES | cell number change | AC50 [1] | AC50 [2] |
| --- | --- | --- | --- |
| Cc1ccc(N(CN2CCCC2=O)C(=O)c2ccc(OC(C)C)cc2)cc1 | -17.1% | 6.51 µM [falling, partial curve] | – |
| Cc1ccc(S(=O)(=O)NCc2nc3ccccc3c(=O)n2N)cc1 | -15.1% | 0.731 µM [falling, full curve, poor fit] | – |
| COc1ccc(Br)cc1CNc1ccc(S(N)(=O)=O)cc1 | – | 10.3 µM [rising, partial curve] | – |
| Cc1c(NC(=O)C(C)OC(=O)CNC(=O)c2ccccc2)c(=O)n(-c2ccccc2)n1C (stereo not given) | -24.7% | 0.00517 µM [falling, full curve] | 0.164 µM [falling, full curve, poor fit] |
| O=C(C(=C1NCCN1)n1cncn1)c1ccccc1 | 36.3% | 18.4 µM [rising, partial curve] | 23.1 µM [rising, single point] |
| CC(=O)Nc1nc(-c2ccc(Cl)cc2)nc(C)c1C(C)=O | – | – | 0.00461 µM [rising, full curve, poor fit] |
| CCCCN(CCCC)C(=O)c1ccccc1NC(=O)CN1C(=O)c2ccccc2C1=O | 16.1% | – | – |
| CN(Cc1nccn1C)C(=O)C1CCC(=O)N(Cc2cccc(C(F)(F)F)c2)C1 (stereo not given) | 2.29% | 3.66 µM [falling, single point] | – |
| Cc1cc(C=C(C#N)C#N)c(C)n1-c1ccccc1 | 4.04% | – | – |
| CC(=O)Nc1ccc(S(=O)(=O)NCCc2ccc(S(N)(=O)=O)cc2)cc1 | 8.94% | – | – |
| Cn1ncc2c(Nc3cccc(C(=O)O)c3)ncnc21 | 19% | 18.4 µM [rising, single point] | – |
| CCCC1COC(Cn2cncn2)(c2ccc(C)cc2)O1 (stereo not given) | -0.0718% | 0.146 µM [rising, full curve] | 0.13 µM [rising, full curve, poor fit] |
| COc1cc(C)c(S(=O)(=O)n2nnc3ccccc32)cc1C | -80.4% | 5.8 µM [falling, full curve] | 5.8 µM [falling, full curve] |
| CCc1ccc(C2CC(c3ccc(Cl)cc3)=NNC2=O)cc1 (stereo not given) | -12.9% | – | – |
| C=C1C(=O)O[C@H]2[C@H]1[C@@H](O)CC(=C)[C@@H]1CC(=O)[C@@H](C)[C@H]21 | -26.5% | 29.1 µM [falling, single point] | – |
| CC(O)Cc1nsc(NC(=O)c2cccs2)n1 (stereo not given) | -18.9% | 0.461 µM [falling, partial curve, poor fit] | – |
| CCOc1ccccc1NC(=O)CN1CCCCCC1 | -0.275% | 2.91 µM [falling, full curve, poor fit] | – |
| Cc1cc(C)nc(NC2=NCC(=O)N2c2ccc(F)c(Cl)c2)n1 | 19.2% | – | – |
| CC(=O)Oc1ccc(C(=O)Nc2cccc(C(=O)NC(C)(C)C)c2)cc1 | 7.51% | – | – |
| CCOc1ccc2nc(NC(=O)C(NS(=O)(=O)c3cccc4nsnc34)C(C)C)sc2c1 (stereo not given) | -38.4% | – | 29.1 µM [falling, single point] |
| CCC(C)n1c(SCc2ccccc2)nc2ccsc2c1=O (stereo not given) | 5.3% | 9.2 µM [rising, partial curve] | – |

Of the compounds above, these contain fluorine:

| SMILES | cell number change | AC50 [1] | AC50 [2] |
| --- | --- | --- | --- |
| CN(Cc1nccn1C)C(=O)C1CCC(=O)N(Cc2cccc(C(F)(F)F)c2)C1 (stereo not given) | 2.29% | 3.66 µM [falling, single point] | – |
| Cc1cc(C)nc(NC2=NCC(=O)N2c2ccc(F)c(Cl)c2)n1 | 19.2% | – | – |

Next compounds.

| SMILES | cell number change | AC50 [1] | AC50 [2] |
| --- | --- | --- | --- |
| O=C(O)c1ccc(N/N=C/c2cccc(F)c2)cc1 | 14.2% | 5.8 µM [rising, partial curve] | – |
| Cc1cc(NC(=O)c2cc(C(C)C)on2)nn1Cc1ccc(Cl)cc1 | 14% | 11.6 µM [falling, partial curve, poor fit] | – |
| Cc1nnc(SCc2nnc(-c3cccs3)o2)s1 | 4.3% | 0.00651 µM [falling, full curve, poor fit] | – |
| CCCOc1ncnc2c1[nH]c1ccccc12 | -34.2% | 10.3 µM [falling, partial curve] | 8.2 µM [falling, partial curve] |
| CCOC(=O)N1CCN(C(=O)c2cccc(N3C(=O)NC4CC3(C)Oc3ccccc34)c2)CC1 (stereo not given) | -13% | – | – |
| COC(=O)CN1C(c2ccccc2)=Nc2ccc(Cl)cc2C1c1ccccc1 (stereo not given) | 13.2% | – | – |
| COc1cc(NC(=O)Cc2nn(C)c(=O)c3ccccc23)cc(OC)c1 | -33.9% | 16.4 µM [falling, single point] | 5.8 µM [falling, partial curve] |
| O=C(NC1=NCCS1)c1ccc([N+](=O)[O-])cc1Cl | 41.1% | – | 13 µM [rising, single point] |
| C#CCSc1nnnn1-c1ccc(Br)c(C)c1 | -45.8% | – | 14.6 µM [falling, partial curve, poor fit] |
| CN(CCc1ccccn1)C(=O)c1cccnc1Oc1ccc(Cl)cc1 | 19.6% | 13 µM [rising, partial curve, poor fit] | – |
| COc1ccc2cc3cc(C(=O)NCC4CCCO4)oc3nc2c1 (stereo not given) | – | 0.58 µM [rising, single point] | – |
| COCCn1c(C)cc(C(=O)CSc2nnc(C3CC3)n2C2CC2)c1C | 4.14% | 0.116 µM [rising, full curve, poor fit] | – |
| CSc1nc(-c2ccc(C)cc2)[nH]c1S(=O)(=O)c1ccccc1 | -15.6% | – | – |
| N=C1C(c2ccccc2)=C(O)CN1c1cccc(S(N)(=O)=O)c1 | -14.6% | 0.184 µM [falling, full curve, poor fit] | – |
| CCOc1cccc(/C=C2/NC(=O)N(CC(=O)Nc3cccc(C)c3)C2=O)c1O | 42.5% | 6.51 µM [falling, single point] | 6.51 µM [falling, single point] |
| COc1cccc(C(=O)NC(C)c2ccc(-c3ccccc3)cc2)c1OC (stereo not given) | 72.2% | – | 29.1 µM [rising, single point] |
| Cc1c(C(=O)NC(C)c2ccncc2)oc2ccccc12 (stereo not given) | 111% | – | 20.6 µM [rising, single point] |
| CN(c1cccc(NC(=O)c2ccccc2N(Cc2ccccc2)S(C)(=O)=O)c1)S(C)(=O)=O | -9.85% | 16.4 µM [falling, single point] | – |
| CC1CCCN(CCCNC(=O)C2CC(=O)N(CCc3ccccc3)C2)C1 (stereo not given) | -21.9% | – | – |
| CC(NS(=O)(=O)c1ccc(Br)cc1)C(=O)NC1CCCCCC1 (stereo not given) | 12.2% | – | – |
